{"source": "PubChem BioAssay (NCATS)", "key": {"[1]": {"test": "Quantitative High-Throughput drug screen in 47 multiple myeloma cell lines against the NCATS MIPE library collection: OPM2_DSMZ cell viability assay (AID 1919872); also: nearly all actives have a fitted effect of over 30% in size", "details": "OPM2 myeloma viability, CellTiter-Glo ATP luminescence, 48 h; series mostly up to 45.8 µM", "method_in_brief": "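Myeloma cells (500 per well) were exposed to MIPE 4.0 compounds by pin transfer and incubated 48 hours at 37C, 5% CO2. Viability was read as ATP by CellTiter-Glo luminescence, normalised to DMSO (100%) and media-only (0%) wells.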"}, "[2]": {"test": "Quantitative High-Throughput drug screen in 47 multiple myeloma cell lines against the NCATS MIPE library collection: RPMI8226_ATCC cell viability assay (AID 1919871); also: nearly all actives have a fitted effect of over 30% in size", "details": "RPMI8226 myeloma viability, CellTiter-Glo ATP luminescence, 48 h", "method_in_brief": "(§1)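 500 cells/well per myeloma line exposed to pinned MIPE 4.0 compounds for 48 h at 37 °C, 5% CO2. Viability read as ATP by CellTiter-Glo luminescence, normalised to DMSO-only (100%) and media-only (0%) wells.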"}, "[3]": {"test": "Quantitative High-Throughput drug screen in 47 multiple myeloma cell lines against the NCATS MIPE library collection: KMS28BM_JCRB cell viability assay (AID 1919874)", "method_in_brief": "as §1"}, "[4]": {"test": "Quantitative High-Throughput drug screen in 47 multiple myeloma cell lines against the NCATS MIPE library collection: KMS11_JCRBsus cell viability assay (AID 1919873)", "method_in_brief": "as §1"}}, "note": "Inconclusive means that the source gave no clear call. Such entries were picked first, then a sample of the others. Where the call is inconclusive, the potency comes from a doubtful curve fit. Active and inactive are the calls of the source. Calls follow the shape of the dose curve; as a rule, active = well fitted cell-killing curve with a large enough effect; inconclusive = small, poorly fitted or top-dose-only effect, or effect the other way; inactive = no such curve, though single readings can be large or run the other way. Potency is read from the fitted curve at half-maximal effect.", "data": [{"smiles": "COc1ccc(S(=O)(=O)Nc2cccnc2Nc2ccc(O)cc2)cc1", "values": [{"measurement": "Potency", "setting": "[1]", "value": "active: 0.118 µM"}]}, {"smiles": "O=C(O)Cn1nnc(-c2cc(N3CCC(Oc4cc(F)ccc4Br)CC3)no2)n1", "values": [{"measurement": "Potency", "setting": "[2]", "value": "inactive"}, {"measurement": "Potency", "setting": "[3]", "value": "inactive"}]}, {"smiles": "CCN(CC)CCCCNc1ncc2cc(-c3cc(OC)cc(OC)c3)c(NC(=O)NC(C)(C)C)nc2n1", "values": [{"measurement": "Potency", "setting": "[2]", "value": "inconclusive: 29.6 µM [cytotoxic, partial curve, poor fit]"}, {"measurement": "Potency", "setting": "[3]", "value": "inconclusive: 18.7 µM [cytotoxic, partial curve]"}]}, {"smiles": "CC(C)C[C@H](NC(=O)[C@@H](O)[C@H](N)Cc1ccccc1)C(=O)O", "values": [{"measurement": "Potency", "setting": "[1]", "value": "inconclusive: 26.4 µM [cytotoxic, single point]"}]}, {"smiles": "O[C@@H](CNC[C@H](O)[C@H]1CCc2cc(F)ccc2O1)[C@@H]1CCc2cc(F)ccc2O1", "values": [{"measurement": "Potency", "setting": "[1]", "value": "active: 18.7 µM"}]}, {"smiles": "CCc1cnn2c(NCc3ccc[n+]([O-])c3)cc(N3CCCC[C@@H]3CCO)nc12", "values": [{"measurement": "Potency", "setting": "[1]", "value": "active: 0.0296 µM"}]}, {"smiles": "C[C@@H]1COC(Nc2ccc3ncnc(Nc4ccc(OCc5nccs5)c(Cl)c4)c3c2)=N1", "values": [{"measurement": "Potency", "setting": "[2]", "value": "active: 33.2 µM"}, {"measurement": "Potency", "setting": "[3]", "value": "inconclusive: 23.5 µM [cytotoxic, partial curve]"}]}, {"smiles": "CC(C)N(CC[C@H](c1ccccc1)c1cc(CO)ccc1O)C(C)C", "values": [{"measurement": "Potency", "setting": "[1]", "value": "inactive"}, {"measurement": "Potency", "setting": "[4]", "value": "inactive"}]}, {"smiles": "Fc1cc(-c2cccc3ncc(-c4cnn(C5CCNCC5)c4)nc23)cc(F)c1CN1CCOCC1", "values": [{"measurement": "Potency", "setting": "[1]", "value": "inconclusive: 26.4 µM [cytotoxic, single point]"}]}, {"smiles": "NC(=O)NO", "values": [{"measurement": "Potency", "setting": "[1]", "value": "active: 6.62 µM"}, {"measurement": "Potency", "setting": "[4]", "value": "active: 0.526 µM"}]}, {"smiles": "COc1ccc(Nc2cc(-c3cnc(N)nc3)nc(N3CCOCC3)n2)cn1", "values": [{"measurement": "Potency", "setting": "[2]", "value": "inconclusive: 2.35 µM [cytotoxic, full curve]"}, {"measurement": "Potency", "setting": "[3]", "value": "inconclusive: 5.9 µM [cytotoxic, partial curve]"}]}, {"smiles": "OC1CCC(Nc2ncc3nc(Nc4c(F)cc(F)cc4F)n([C@@H]4CCOC4)c3n2)CC1", "note": "(stereo partly drawn)", "values": [{"measurement": "Potency", "setting": "[1]", "value": "inconclusive: 26.4 µM [cytotoxic, single point]"}, {"measurement": "Potency", "setting": "[4]", "value": "inconclusive: 23.5 µM [cytotoxic, single point]"}]}, {"smiles": "C#C[C@]1(O)CC[C@@H]2[C@@H]3CCC4=CC(=O)CC[C@@H]4[C@H]3CC[C@@]21CC", "values": [{"measurement": "Potency", "setting": "[2]", "value": "inconclusive: 13.2 µM [cytotoxic, partial curve]"}, {"measurement": "Potency", "setting": "[4]", "value": "inconclusive: 0.0017 µM [cytotoxic, full curve, poor fit]"}, {"measurement": "Potency", "setting": "[3]", "value": "inactive"}]}, {"smiles": "CCC(C=C[C@@H]1OC(=O)C=C[C@H]1C)=C[C@H](C)CC=CC(C)=C[C@@H](C)C(=O)[C@@H](C)[C@H](O)[C@@H](C)CC(C)=CC(=O)O", "values": [{"measurement": "Potency", "setting": "[2]", "value": "active: 0.0311 µM"}, {"measurement": "Potency", "setting": "[3]", "value": "active: 0.011 µM"}]}, {"smiles": "CN(C)CCOc1ccc(-c2nc(-c3ccc4c(c3)CCC4=NO)c(-c3ccncc3)[nH]2)cc1", "values": [{"measurement": "Potency", "setting": "[1]", "value": "active: 16.6 µM"}, {"measurement": "Potency", "setting": "[4]", "value": "active: 11.8 µM"}]}, {"smiles": "O=C(c1ccc(OCCN2CCCCC2)cc1)c1c(-c2ccc(O)cc2)sc2cc(O)ccc12", "values": [{"measurement": "Potency", "setting": "[1]", "value": "inconclusive: 18.7 µM [cytotoxic, partial curve, poor fit]"}]}, {"smiles": "O=S(=O)(O)c1ccc2cc(N=Nc3cc(S(=O)(=O)O)c4cccnc4c3O)ccc2c1", "values": [{"measurement": "Potency", "setting": "[1]", "value": "inactive"}, {"measurement": "Potency", "setting": "[4]", "value": "inconclusive: 2.64 µM [cytotoxic, full curve, poor fit]"}]}, {"smiles": "C[C@]12C=CC(=O)N[C@@H]1CC[C@H]1[C@H]3CC[C@@H](C(=O)Nc4cc(C(F)(F)F)ccc4C(F)(F)F)[C@@]3(C)CC[C@@H]12", "values": [{"measurement": "Potency", "setting": "[2]", "value": "inconclusive: 20.9 µM [cytotoxic, partial curve]"}, {"measurement": "Potency", "setting": "[3]", "value": "inconclusive: 0.105 µM [cytotoxic, full curve, poor fit]"}]}, {"smiles": "CC(=O)O[C@H]1C[C@@H]2CC[C@H]3[C@H]4C[C@H]([N+]5(C)CCCCC5)[C@@H](OC(C)=O)[C@@]4(C)CC[C@@H]3[C@@]2(C)C[C@H]1[N+]1(C)CCCCC1", "values": [{"measurement": "Potency", "setting": "[2]", "value": "inactive"}, {"measurement": "Potency", "setting": "[3]", "value": "inactive"}]}, {"smiles": "Cc1cc2c(C(C)C)c(O)c(O)c(C=O)c2c(O)c1-c1c(C)cc2c(C(C)C)c(O)c(O)c(C=O)c2c1O", "values": [{"measurement": "Potency", "setting": "[1]", "value": "active: 18.7 µM"}]}, {"smiles": "CN(C)CCN(C)C(=O)c1ccc(NC(=O)Nc2ccc(-c3nc(N4CCOCC4)c4ccn(CC(F)(F)F)c4n3)cc2)cc1", "values": [{"measurement": "Potency", "setting": "[2]", "value": "active: 0.0833 µM"}, {"measurement": "Potency", "setting": "[3]", "value": "active: 0.0148 µM"}]}, {"smiles": "Cn1c(=O)c(-c2c(Cl)cccc2Cl)cc2cnc(Nc3cccc(C(=O)O)c3)nc21", "values": [{"measurement": "Potency", "setting": "[1]", "value": "inconclusive: 11.8 µM [cytotoxic, single point]"}]}, {"smiles": "CCOC(=O)N1CCN([N+]([O-])=NOc2ccc([N+](=O)[O-])cc2C#N)CC1", "values": [{"measurement": "Potency", "setting": "[1]", "value": "active: 0.935 µM"}]}]}
